# Measurements from PubChem BioAssay AID1347076 (National Center for Advancing Translational Sciences (NCATS), 2019).
# About 13,000 (3.2%) of roughly 400,000 compounds were called active. This list was built around the results that the source calls inconclusive (neither active nor inactive); the mix of calls is not that of the screen. Calls follow the shape of the dose curve; as a rule, active = well fitted cell-killing curve with a large enough effect; inconclusive = small, poorly fitted or top-dose-only effect, or effect the other way; inactive = flat fitted curve, though single readings scatter. Potencies of inconclusive entries are doubtful fits and often do not repeat.
# Experiment: qHTS assay for MDR1-selective chemotherapeutics: Primary screen using the drug-selected MDR subline cells KB-V1; also: nearly all actives have a fitted effect of over 60% in size
# Conditions: KB-V1 MDR cells viability, CellTiter-Glo, 72 h; activity change, negative = cytotoxicity: at 46.1 µM (top of the series)
# Procedure, shortened: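 KB-V1, DMEM (no phenol red) + 10% FBS; cpd pin-transferred, titration series; 72 h, 37 degrees C; CellTiter-Glo, luminescence. Data normalized, curve-fit.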
# % is scaled to controls: 0 for no effect and ±100 for the full control effect; potency is read from the fitted curve at half-maximal effect.
SMILES,Potency,"activity change, negative = cytotoxicity"
COc1cc(C)ccc1OCCSc1nc2ccc(NC(=O)c3cccs3)cc2s1,inactive,
COc1ccc(CN(C(=O)c2ccco2)c2ccc(C)c(C)c2)cc1,"inconclusive: 20.6 µM [cytotoxic, single point]",
CCCCn1nc(C(=O)NCC(c2cccs2)N2CCOCC2)c2ccccc2c1=O (stereo unspecified),"inconclusive: 16.4 µM [cytotoxic, partial curve, poor fit]",
CCc1ccc(C(=O)CSc2nc(-c3ccccc3)nc3c2CCCC3)cc1,inactive,
Cc1cc(C)cc(-n2ncc3c2CCCC3NC(=O)c2ccccc2N2CCOCC2)c1 (stereo unspecified),"inconclusive: 23.1 µM [cytotoxic, partial curve, poor fit]",
COc1cccc2cc(-c3nnc(SCC(=O)Nc4ccc(NC(C)=O)cc4)n3C)oc12,inactive,
N=c1c2cn[nH]c2nc(SCC(=O)c2ccc(Br)cc2)n1-c1ccc(Br)cc1,inactive,
CCOc1ccc(NC(=O)N2CCC(C(=O)c3ccc(F)cc3)CC2)cc1,"inconclusive: 13 µM [cytotoxic, single point]",
O=P(Cc1cc(Br)cc(Br)c1OCCO)(c1ccccc1)c1ccccc1,"inconclusive: 13 µM [cytotoxic, partial curve]",
COc1ccc(C(=O)OCC(=O)c2ccc3[nH]c(=O)[nH]c3c2)c(OC)c1OC,inactive,
CC(C)(C)c1ccc(-c2n[nH]c(=S)n2CC2CCCO2)cc1 (stereo unspecified),inactive,
CCc1ccccc1NC(=O)c1cccc(NC(=O)/C=C/c2ccco2)c1,"inconclusive: 11.6 µM [cytotoxic, partial curve]",
CCC/C(=N\NC(=O)c1csc(C)c1C)c1cccs1,"inconclusive: 29.1 µM [cytotoxic, single point]",
CCOc1ccc(NC(=S)N2CCN(S(=O)(=O)c3ccc(C)cc3)CC2)cc1,"inconclusive: 29.1 µM [cytotoxic, single point]",
CCCc1cc2c(cc1NC(=O)c1ccco1)OCO2,inactive,
O=C(Nc1ccc2oc(-c3ccccc3)nc2c1)c1ccc2c(c1)OCCO2,active: 8.2 µM,
Cc1cccc(N2C(=S)N=C(Nc3c(C)cccc3C)C23CCOC(C)(C)C3)c1 (stereo unspecified),inactive,
CC(=O)OCCNC(=O)c1cc2ccccc2oc1=O,"inconclusive: 0.231 µM [rising, single point]",
Cc1ccc(Nc2ccc(S(=O)(=O)N3CCOCC3)cc2[N+](=O)[O-])cc1C,"inconclusive: 14.6 µM [cytotoxic, partial curve, poor fit]",
OCC1OC(O)CC(O)C1O (stereo unspecified),inactive,
O=C(O)C1CC(Br)C(Br)CC1C(=O)O (stereo unspecified),inactive,
COc1ccc(CNS(=O)(=O)c2ccc(F)c(C(=O)Nc3c(C)cc(C)cc3C)c2)cc1,inactive,
COc1ccc(NC(=O)C2=CN3CCS(=O)(=O)N=C3C=C2)c(OC)c1,"inconclusive: 10.3 µM [rising, partial curve, poor fit]",
Fc1ccc(-n2cc(CNCCc3cccnc3)c(-c3ccccc3Cl)n2)cc1,"inconclusive: 1.64 µM [cytotoxic, full curve]",
CN(Cc1cnn(-c2ccccc2)c1)C(=O)c1cccc(S(=O)(=O)N(C)c2ccccc2)c1,"inconclusive: 3.26 µM [cytotoxic, partial curve]",
CC(=O)c1ccc(OCC(=O)c2cc(C)n(-c3ccc4c(c3)OCO4)c2C)cc1,active: 8.2 µM,

SMILES,Potency,"activity change, negative = cytotoxicity"
CCC(C)NC(=O)CSc1nnc(-c2c[nH]c3ccccc23)o1 (stereo unspecified),"inconclusive: 18.4 µM [cytotoxic, single point]",
Cc1cc(C)n(CC(O)COc2ccc(Cl)cc2Cl)n1 (stereo unspecified),active: 10.3 µM,
Cc1ccc(S(=O)(=O)NC(=O)Nc2cc(C)on2)cc1,"inconclusive: 0.651 µM [rising, full curve, poor fit]",
CC(=O)N1CCOc2ccc(S(=O)(=O)N3CCC(C(=O)NCc4ccc(Cl)cc4)CC3)cc21,inactive,
Cc1ccccc1C(=O)N1CCC(C(=O)N(C)CC(=O)Nc2cccc(F)c2)CC1,inactive,
Cc1cc(=O)[nH]c(N/N=C/c2ccc(O)c(O)c2)n1,"inconclusive: 29.1 µM [rising, single point]",
O=C(C1CCN(S(=O)(=O)N2CCC3(CC2)OCCO3)CC1)N1CCC(Cc2ccccc2)CC1,"inconclusive: 32.6 µM [cytotoxic, single point]",
CCc1cccc(NC(=O)COC(=O)CSc2ccc(C)cc2)c1,inactive,
COc1ccc(S(=O)(=O)N2CCOC2CNC(=O)C(=O)NCc2ccc3c(c2)OCO3)cc1C (stereo unspecified),inactive,
COc1ccc(C2CC(=O)c3c([nH]c(C(=O)OC(C)C)c3C)C2)cc1OC (stereo unspecified),active: 2.59 µM,
CC(=O)N1CCN(c2ccc(NC(=O)c3cccc([N+](=O)[O-])c3)cc2)CC1,inactive,
Cc1cc(C)n(-c2ccc3nnc(C)n3n2)n1,"inconclusive: 16.4 µM [cytotoxic, single point]",
Cc1cc(NS(=O)(=O)c2ccc(NC(=O)c3ccc([N+](=O)[O-])cc3)cc2)nc(C)n1,inactive,
O=C1c2cccc3cccc(c23)N1Cc1cccc(F)c1,inactive,
O=C(NCCc1c[nH]c2ccccc12)c1ccc([N+](=O)[O-])cc1,"inconclusive: 23.1 µM [cytotoxic, single point]",
O=C(CNc1ccc2ccccc2c1)NNC1=NCCC1,inactive,
COc1cc(-c2cc(C(=O)Nc3ccccc3N3CCOCC3)c3ccccc3n2)cc(OC)c1OC,active: 9.2 µM,
Cc1ccc(C(=O)N2CCN=C2SCc2ccc([N+](=O)[O-])cc2)cc1,"inconclusive: 16.4 µM [cytotoxic, partial curve]",
Cc1ccc2nc(SCC(=O)N3CCN(C(=O)c4ccco4)CC3)[nH]c2c1,"inconclusive: 18.4 µM [cytotoxic, single point]",
COc1cc(C(O)c2nc(-c3ccccc3OC)cs2)ccc1F (stereo unspecified),inactive,
C(=C\c1ccnc2ccccc12)/c1ccnc2ccccc12,"inconclusive: 23.1 µM [cytotoxic, partial curve]",
CC(C)(C(=O)N1CCC1(C)C(=O)NS(=O)(=O)c1ccccc1Cl)c1ccccc1 (stereo unspecified),inactive,
CCc1c(C)sc(NC(=O)CN2CCN(C(=O)c3ccco3)CC2)c1C(=O)OC,inactive,
COc1cc(/C=C/CNC[C@H]2O[C@@H](n3cc(C)c(=O)[nH]c3=O)C[C@@H]2O)ccc1O,inactive,
O=C(COC(=O)c1nc(Cl)ccc1Cl)Nc1cccc(S(=O)(=O)N2CCOCC2)c1,"inconclusive: 20.6 µM [cytotoxic, single point]",
CCc1cccc(C)c1NC(=O)c1nc2ccccc2nc1N1CCCCC1,inactive,

# Three structures already listed, ordered by molar mass, rising:
SMILES,Potency,"activity change, negative = cytotoxicity"
COc1cc(C(O)c2nc(-c3ccccc3OC)cs2)ccc1F (stereo unspecified),inactive,
Cc1ccc(C(=O)N2CCN=C2SCc2ccc([N+](=O)[O-])cc2)cc1,"inconclusive: 16.4 µM [cytotoxic, partial curve]",
COc1ccc(S(=O)(=O)N2CCOC2CNC(=O)C(=O)NCc2ccc3c(c2)OCO3)cc1C (stereo unspecified),inactive,

# Later entries

SMILES,Potency,"activity change, negative = cytotoxicity"
CCOc1ccc(-n2c(C)nc3c(cnn3-c3ccc(Cl)cc3)c2=O)cc1,inactive,
Cc1ccc(-c2nn3c(C)nnc3s2)cc1N,"inconclusive: 20.6 µM [cytotoxic, single point]",
Cc1ccc(NC(=O)C(=O)NCCN2CCN(Cc3ccc([N+](=O)[O-])cc3)CC2)cc1,active: 2.91 µM,
CCOc1ccc(C(=O)NC2CC3CCCC(C2)N3Cc2ccccc2)cc1 (stereo unspecified),"inconclusive: 2.06 µM [cytotoxic, partial curve, poor fit]",
N#C/C(=C\c1ccc(Cl)cc1)c1nc2ncccc2[nH]1,active: 18.4 µM,
Cc1ccc(N2C(=O)CSC23C(=O)N(CC(=O)Nc2ccc(C)cc2C)c2ccccc23)cc1 (stereo unspecified),"inconclusive: 2.06 µM [cytotoxic, full curve, poor fit]",
Cc1ccc(CN2CC(C(=O)N3CCN(S(=O)(=O)c4ccc(C)cc4C)CC3)CC2=O)cc1 (stereo unspecified),active: 16.4 µM,
O=C(Nc1ccc(N2CCCC2)c(Cl)c1)c1cccnc1,,inconclusive: -36.6%
O=C(O)C1CCCC[C@H]1C(=O)Nc1ncc([N+](=O)[O-])s1 (stereo partly specified),inactive,
O=C(/C(=C/c1ccccc1Cl)c1ccccc1)N1CCOCC1,active: 23.1 µM,
CC1(C)Cc2nc3sc4c(=O)n(CC(N)=O)cnc4c3cc2CO1,inactive,
Fc1ccc(CNC(=S)NC2CCCC2)cc1,"inconclusive: 29.1 µM [cytotoxic, single point]",
CCOC(=O)c1c(C)[nH]c(C(=O)N2CCN(c3ccc(OC)cc3)CC2)c1C,inactive,
CCOc1ccc(NS(=O)(=O)c2ccc3[nH]cc(C(=O)N(C)C4CCCCC4)c(=O)c3c2)cc1,"inconclusive: 16.4 µM [rising, single point]",
Cc1ccc2c(=O)cc(C(=O)Nc3c(C(=O)c4ccccc4)oc4ccccc34)oc2c1,inactive,
CCc1ccc(-c2cn3nc(C)c(C)nc3n2)cc1,active: 18.4 µM,
O=C(Oc1ccc(-c2nc(-c3ccccn3)no2)cc1)c1ccccc1,active: 7.31 µM,
CCCCN=C1N/C(=C\c2ccco2)C(=O)N1c1ccccc1,"inconclusive: 32.6 µM [cytotoxic, single point]",
COc1ccc(CCN(C)C(=O)c2cc(=O)c3ccccc3o2)cc1OC,"inconclusive: 25.9 µM [cytotoxic, partial curve, poor fit]",
CCOC(=O)c1c(-c2ccc(C)cc2C)csc1NC(=O)c1ccccc1Cl,"inconclusive: 18.4 µM [rising, single point]",
Clc1ccc(OCc2nc(-c3ccccn3)n[nH]2)cc1,active: 4.61 µM,
OC(COc1ccc2ccccc2c1Br)Cn1cnc(-c2ccccc2)c1 (stereo unspecified),inactive,
O=C(NCCCN1CCCCC1)c1ccc2c(c1)sc1nc(-c3ccc(F)cc3)cn12,active: 16.4 µM,
C=C(C)C1CC=C(C)/C(=N/NC(=S)Nc2ccccc2)C1 (stereo unspecified),"inconclusive: 16.4 µM [cytotoxic, partial curve, poor fit]",

# Among those listed so far, these have an NH in an aromatic ring.
SMILES,Potency,"activity change, negative = cytotoxicity"
N=c1c2cn[nH]c2nc(SCC(=O)c2ccc(Br)cc2)n1-c1ccc(Br)cc1,inactive,
COc1ccc(C(=O)OCC(=O)c2ccc3[nH]c(=O)[nH]c3c2)c(OC)c1OC,inactive,
CC(C)(C)c1ccc(-c2n[nH]c(=S)n2CC2CCCO2)cc1 (stereo unspecified),inactive,
CCC(C)NC(=O)CSc1nnc(-c2c[nH]c3ccccc23)o1 (stereo unspecified),"inconclusive: 18.4 µM [cytotoxic, single point]",
Cc1cc(=O)[nH]c(N/N=C/c2ccc(O)c(O)c2)n1,"inconclusive: 29.1 µM [rising, single point]",
COc1ccc(C2CC(=O)c3c([nH]c(C(=O)OC(C)C)c3C)C2)cc1OC (stereo unspecified),active: 2.59 µM,
O=C(NCCc1c[nH]c2ccccc12)c1ccc([N+](=O)[O-])cc1,"inconclusive: 23.1 µM [cytotoxic, single point]",
Cc1ccc2nc(SCC(=O)N3CCN(C(=O)c4ccco4)CC3)[nH]c2c1,"inconclusive: 18.4 µM [cytotoxic, single point]",
COc1cc(/C=C/CNC[C@H]2O[C@@H](n3cc(C)c(=O)[nH]c3=O)C[C@@H]2O)ccc1O,inactive,
N#C/C(=C\c1ccc(Cl)cc1)c1nc2ncccc2[nH]1,active: 18.4 µM,
CCOC(=O)c1c(C)[nH]c(C(=O)N2CCN(c3ccc(OC)cc3)CC2)c1C,inactive,
CCOc1ccc(NS(=O)(=O)c2ccc3[nH]cc(C(=O)N(C)C4CCCCC4)c(=O)c3c2)cc1,"inconclusive: 16.4 µM [rising, single point]",
Clc1ccc(OCc2nc(-c3ccccn3)n[nH]2)cc1,active: 4.61 µM,
